Percent effect of library compounds

Sequences of proteins named here, by UniProt entry; tags and fusion partners are left off. Residues count along the entry.
UniProt Q8IDJ8, 1-583: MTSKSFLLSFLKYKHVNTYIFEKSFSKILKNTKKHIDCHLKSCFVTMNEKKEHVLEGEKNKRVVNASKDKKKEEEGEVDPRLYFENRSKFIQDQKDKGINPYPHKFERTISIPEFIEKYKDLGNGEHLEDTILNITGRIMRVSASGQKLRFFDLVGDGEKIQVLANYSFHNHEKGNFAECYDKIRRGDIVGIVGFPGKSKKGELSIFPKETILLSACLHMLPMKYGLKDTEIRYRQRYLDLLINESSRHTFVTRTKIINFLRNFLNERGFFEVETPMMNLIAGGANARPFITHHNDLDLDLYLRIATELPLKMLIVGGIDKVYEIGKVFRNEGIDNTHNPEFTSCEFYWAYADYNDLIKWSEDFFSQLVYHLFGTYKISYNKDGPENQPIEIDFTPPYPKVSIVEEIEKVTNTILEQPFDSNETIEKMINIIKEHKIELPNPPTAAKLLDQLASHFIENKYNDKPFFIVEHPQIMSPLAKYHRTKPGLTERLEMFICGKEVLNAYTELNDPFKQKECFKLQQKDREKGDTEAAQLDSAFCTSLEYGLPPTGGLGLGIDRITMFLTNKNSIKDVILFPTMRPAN
UniProt P9WPC5, whole entry: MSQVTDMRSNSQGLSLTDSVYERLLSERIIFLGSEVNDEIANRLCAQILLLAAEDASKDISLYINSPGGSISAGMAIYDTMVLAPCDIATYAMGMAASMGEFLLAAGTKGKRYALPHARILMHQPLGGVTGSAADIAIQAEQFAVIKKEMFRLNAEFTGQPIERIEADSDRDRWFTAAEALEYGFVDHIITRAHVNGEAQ
UniProt P9WPC3, whole entry partner: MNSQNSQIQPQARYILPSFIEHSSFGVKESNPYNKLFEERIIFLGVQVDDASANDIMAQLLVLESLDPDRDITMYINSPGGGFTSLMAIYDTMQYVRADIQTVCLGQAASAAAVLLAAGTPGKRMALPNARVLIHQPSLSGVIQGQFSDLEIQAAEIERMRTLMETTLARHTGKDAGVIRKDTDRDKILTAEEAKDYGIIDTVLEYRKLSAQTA

Measurements from “University of Dundee, Small-Polar-MMV Screening Library” (2021), ChEMBL document CHEMBL3988442.

PfKRS1: 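Lysine-tRNA ligase, Plasmodium falciparum 3D7 (UniProt Q8IDJ8). Enzyme assay of the cytosolic lysyl-tRNA synthetase in 384-well plates, read by luminescence. Concentration: 30 µM. Direction is inferred from only a few compounds that gave an IC50; most scored high, so higher reads as stronger inhibition. About 69,000 compounds were tested under these conditions; 0.071% (about 49) showed 50% or more at least once.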
ClpP1P2: 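Protease assay of ClpP1P2, read by the AMC dye that it sets free. Target: ClpP1P2, Mycobacterium tuberculosis (UniProt P9WPC5 and UniProt P9WPC3). Concentration: 50 µM. Direction is inferred from only a few compounds that gave an IC50; most scored high, so higher reads as stronger inhibition. Most other retested compounds had strongly negative values. Size under these conditions: about 69,000 compounds, about 10 of them at 50% or above in at least one test.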

Values are the deposited “Percent Effect”, in %. The record does not define 0% and 100%; most values in the screen are far below 50% and negative numbers occur (in some assays of this library far below -100). This is an unselected part of the compounds tested.

structure,PfKRS1,ClpP1P2
Cc1cnc2c(c1)N(C(=O)c1ccc(=O)n(C)c1)CCO2,0.6646%,-1.039%
CCn1nc(C)c2c1cnn2CCNS(=O)(=O)CC,8.448%,-12.27%
CC(C)C(C)(O)CNC(=O)Nc1ccccn1 (stereo not given),2.611%,-7.224%
CCc1nc(CN(C)C(=O)c2cc(NC(C)=O)ccc2Cl)no1,1.425%,-6.609%
Cc1ccc(C(=O)NCC2(O)CCOCC2)cc1Br,8.302%,-3.58%
Cc1nc(Cc2ccccc2)nc2sc(C(=O)O)c(C)c12,-3.193%,-5.2%
COCC1CC2(CCN(Cc3nccn3C)CC2)CN1c1ncccn1 (stereo not given),3.203%,-6.364%
CCCC(C(=O)NC1CCN(S(C)(=O)=O)CC1)n1cccc1 (stereo not given),3.418%,-5.645%
COc1c(CNC2CCOc3ccccc32)c(C)nn1C (stereo not given),6.888%,2.892%
CN1CCN(C2COC3(CCN(Cc4ccc(F)cc4)CC3)C2)CC1 (stereo not given),2.956%,5.241%
COc1nc(C)c(C(=O)N2CCc3[nH]nc(C4CCCC4)c3C2)s1,0.4159%,4.414%
CSCCC(Nc1nc(C)cc(C)n1)C(=O)NCC1CCOCC1 (stereo not given),3.827%,-1.902%
CCOc1nnc(CNC2CCCN(c3ccc(C)nn3)C2)s1 (stereo not given),0.6261%,13.89%
CCN(Cc1cccc2c1OCCO2)C(=O)NC(C)(C)C,0.5734%,-9.062%
CC(C)Oc1ncnc2c1CCN(Cc1cccs1)CC2,3.512%,-1.42%
CN(C)CCOCC1CN(Cc2ccsc2)Cc2nnn(C)c21 (stereo not given),-3.241%,-10.84%
CNC(=O)Cc1ccc(-n2ccnc2-c2ccc(C(=O)O)s2)cc1,8.904%,-11.7%
CC1(C)CC(=O)c2cnc3nc(N4CCCC4)[nH]c(=O)c3c2C1,6.14%,-16.14%
O=C(CC1Cn2ncnc2NC1=O)Nc1ccc(F)c(F)c1 (stereo not given),2.801%,-2.566%
CC(=O)N1CCC(n2nccc2-c2cnc(N)nc2)CC1,3.755%,3.624%
Cc1ccc(C(=O)N(CC(=O)O)CC(C)C)cc1F,1.291%,-1.394%
Cc1c(C(=O)N2CCC3(CCCNC3=O)C2)sc2nc[nH]c(=O)c12 (stereo not given),8.293%,-8.686%
O=C(Nc1ccc(F)cc1)C1CNCCN1C(=O)CC1CCCCC1 (stereo not given),-0.3394%,3.969%
CC(C)OCCN1CCN(c2ccc(CN(C)C)cn2)CC1,2.947%,0.1072%
COCC1c2nnn(C)c2CCN1C(=O)Cc1ccc2c(c1)OCO2 (stereo not given),2.8%,-0.252%
c1nc2c(c(NC3CCc4ncnn4C3)n1)CCC2 (stereo not given),6.245%,-6.631%
CN(Cc1cc(-c2ccncc2)no1)Cc1nccn1C,-5.187%,3.937%
Cn1cccc1C(=O)N1C[C@@H]2C[C@@H](c3nnc(C4CC4)o3)O[C@@H]2C1,3.599%,-3.047%
O=c1cc(N2CCCC2)cnn1Cc1noc(C2CCCO2)n1 (stereo not given),1.801%,-0.8199%
COc1cccc(Cn2cc(C3=CCN(CCO)CC3)cn2)c1,3.935%,-10.61%
Cc1cnn(CC(C)NCc2nc(-c3cccnc3)no2)c1 (stereo not given),-1.606%,-4.063%
COc1ccccc1CNC(=O)Cn1nc(-c2ccc(F)cc2)oc1=O,0.9339%,-8.159%
C=C(C)CN(CC)C(=O)CN(C)C1CCc2ccccc21 (stereo not given),-1.381%,-22.76%
CC[C@@H]1N(Cc2ccc(F)cc2)CCC[C@]12CCC(=O)N2CCOC,-2.477%,14.47%
Cc1cnccc1N1CCCN(C(=O)CCCn2ccnc2C)CC1,7.124%,-10.92%
COC(=O)NCC(=O)N1CCCn2nc(CN3CC[C@H](F)C3)cc2C1,-0.9065%,-9.427%
CCC(CC)(CNC(=O)c1cccn1Cc1cccnc1)N(C)C,6.639%,11.97%
CCc1nnc2n1CCN(C(C(=O)NC1CC1)c1ccc(F)cc1)C2 (stereo not given),3.089%,10.98%
c1ccc(CC2(CNCc3ncc[nH]3)CCC2)cc1,-0.06987%,-6.804%
Cc1cc(Br)ccc1CNC(=O)C1(O)CCSCC1,0.05533%,0.2648%
Cn1ccnc1CN1CCCC2(CCN(CC3CCCO3)CC2)C1 (stereo not given),13.4%,5.494%
Cc1ccc(CN2CCn3c(CN4CCN(C)CC4)cnc3C2C)s1 (stereo not given),-0.5556%,-8.049%
c1ccc(CN2C[C@@H]3CC[C@H](C2)N(Cc2nnc(C4CC4)o2)C3)cc1,3.11%,-9.641%
Cc1ccc(CNC(=O)CCNS(C)(=O)=O)cc1,3.047%,-1.675%
Cn1ccc2c(C(=O)N3CCC4(CCOC4)C3)cccc21 (stereo not given),1.938%,-1.699%
CCC(=O)N1CCC2(CC1)CNC(=O)c1cc(C)ccc1O2,0.7378%,-12.9%
Cc1ccc(C(C)N(C)CCS(=O)(=O)CCC(N)=O)cc1 (stereo not given),4.56%,-5.585%